Experimental data published in PubChem BioAssay AID504467 (National Center for Advancing Translational Sciences (NCATS), 2011).
In all, about 330,000 compounds went through this assay and about 7,700 (2.3%) were called active. This list was built around the results that the source calls inconclusive (neither active nor inactive); the mix of calls is not that of the screen. Calls follow the shape of the dose curve; as a rule, active = well fitted inhibition curve with a large enough effect; inconclusive = small, poorly fitted or top-dose-only effect, or effect the other way; inactive = flat fitted curve, though single readings scatter. A potency beside an inconclusive call is a rough fit, not a confirmed value.

test: qHTS screen for small molecules that inhibit ELG1-dependent DNA repair in human embryonic kidney (HEK293T) cells expressing luciferase-tagged ELG1; settings: HEK293T ELG1-luciferase reporter, luminescence, 16 h, DNA damage induced by 5-fluorouridine; series mostly up to 46.1 µM; also: nearly all actives have a fitted effect of over 55% in size
Summary of the method: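 In this reporter screen, reduction of luminescence relative to DMSO vehicle indicated activity. Compounds and 5-fluorouridine were added together to 2,000 cells per well, incubated for 16 hr at 37 °C, then developed with ONE-Glo.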
Potency is read from the fitted curve at half-maximal effect.

| Structure (SMILES) | Potency |
| --- | --- |
| O=C(c1ccc(N2CCN(C(=O)c3ccccc3Br)CC2)cc1)c1cccc(F)c1 | inconclusive: 20.6 µM [inhibitor, partial curve, poor fit] |
| CCc1ccc(C(=O)NNC(=O)CC2OC(=O)c3ccccc32)cc1 (centres undefined) | inconclusive: 25.9 µM [activator, single point] |
| C=CCc1ccc(OCC(O)CN2CCCCC2)c(OC)c1 (centres undefined) | inactive |
| Cc1ccc(C(=O)CN2C(=O)C(C)Oc3ccccc32)cc1 (centres undefined) | inconclusive: 29.1 µM [activator, single point] |
| O=C1CCCC(O)=C1N=Nc1ccc2ncsc2c1 | inconclusive: 11.6 µM [activator, partial curve] |
| O=C(NNC1=C(C(=O)C(F)(F)F)CCC1)c1cccc(Cl)c1 | inconclusive: 23.1 µM [inhibitor, partial curve, poor fit] |
| CC(=O)Nc1ccc(/C=C/c2ccc3c([N+](=O)[O-])cccc3n2)cc1 | inconclusive: 6.51 µM [activator, partial curve] |
| Cn1nc(-c2ccc(OCC(=O)Nc3ccccc3)cc2)c2ccccc2c1=O | inconclusive: 23.1 µM [inhibitor, partial curve] |
| O=C(CCC(=O)N1CCN(c2ccc(F)cc2)CC1)N1CCN(c2ccc(F)cc2)CC1 | inconclusive: 20.6 µM [inhibitor, partial curve, poor fit] |
| Cc1ccc(N2C(=O)S/C(=C/c3cn(C)c4ccccc34)C2=O)cc1 | inconclusive: 8.2 µM [activator, partial curve] |
| Cc1cccc(N2CC(C(=O)OCc3ccc([N+](=O)[O-])cc3)CC2=O)c1 (centres undefined) | inactive |
| O=C(NNS(=O)(=O)c1ccccc1)c1cccc([N+](=O)[O-])c1 | inactive |
| CCOc1ccc2nc(SCC(=O)NCc3ccc(OC)cc3)[nH]c2c1 | inconclusive: 0.146 µM [inhibitor, full curve, poor fit] |
| Cc1cc(Cl)ccc1NC(=S)NC(C)(C)C | inconclusive: 29.1 µM [inhibitor, single point] |
| COc1ccc(/C=N/NC(N)=S)cc1OC(=O)c1cccc2ccccc12 | inconclusive: 20.6 µM [inhibitor, partial curve] |
| COc1cccc2[nH]c(C(=O)NC(C)c3ccccc3)cc12 (centres undefined) | inactive |
| COc1cccc(C2(O)CC(C(F)(F)F)=NN2C(=O)c2ccccn2)c1 (centres undefined) | inconclusive: 14.6 µM [activator, partial curve] |
| Cc1c(C(=O)OCC(=O)N2CCCC(C)C2)oc2ccccc12 (centres undefined) | inconclusive: 18.3 µM [activator, partial curve] |
| COc1ccc(S(=O)(=O)N2CCCCCC2)cc1C(=O)N(C)CC(=O)Nc1cc(C)ccc1C | inconclusive: 23.1 µM [inhibitor, single point] |
| COc1ccccc1C(=O)NNC(=O)c1cccc(Br)c1 | inconclusive: 11.2 µM [activator, partial curve, poor fit] |
| O=C(NC1CCCCC1)N1CCN(c2nc(-c3ccccc3)cs2)CC1 | inactive |
| Cc1ccc(-c2cc(C(=O)N3CCN(c4ccc(F)cc4)CC3)c3ccccc3n2)o1 | inactive |
| CCOC(=O)C1CCCN(S(=O)(=O)c2ccc(NC(C)=O)cc2)C1 (centres undefined) | inconclusive: 13 µM [inhibitor, partial curve] |

| Structure (SMILES) | Potency |
| --- | --- |
| CCC(=O)Nc1cc2nn(-c3ccccc3)nc2cc1Cl | inconclusive: 0.411 µM [activator, full curve] |
| Fc1ccc2cnc(CCO[C@H]3CCCCO3)cc2c1 | inconclusive: 3.26 µM [activator, partial curve, poor fit] |
| CC(=O)Nc1ccc2nc(-c3ccncc3)[nH]c2c1 | inconclusive: 29.1 µM [activator, single point] |
| CCOC(=O)c1c(C)[nH]c(C(=O)COC(=O)c2c(CC)noc2C)c1C | inactive |
| c1ccc(-c2nc(-c3nccc4ccccc34)oc2-c2ccccc2)cc1 | inconclusive: 4.11 µM [activator, full curve] |
| N#Cc1nc(COc2ccccc2)oc1N1CCCCCC1 | inconclusive: 23.1 µM [activator, single point] |
| COc1ccc(N)cc1S(=O)(=O)Nc1ccccc1Cl | inconclusive: 29.1 µM [inhibitor, single point] |
| COCc1cc(=O)[nH]c(Nc2nc(C)c3cc(OC)ccc3n2)n1 | inactive |
| Cc1cc(C(=O)N/N=C/c2c(C)[nH]n(-c3ccccc3)c2=O)n[nH]1 | inactive |
| CN(C)c1cccc(C(=O)OCC(=O)NCC2CCCO2)c1 (centres undefined) | inconclusive: 12.6 µM [activator, single point] |
| Cc1ccc2nc(/C(C#N)=C/c3cn[nH]c3-c3ccc(F)cc3)[nH]c2c1 | inconclusive: 3.66 µM [inhibitor, partial curve, poor fit] |
| Oc1c(C2=NCCNC(C(F)(F)F)=C2)ccc2ccccc12 | inconclusive: 16.4 µM [activator, partial curve] |
| CSc1ccccc1C(=O)OCC(=O)N1CCCCCC1 | inconclusive: 29.1 µM [activator, single point] |
| CC(=O)Nc1ccc(/C=N/NC(=O)CCN2CCN(c3ccccc3)CC2)cc1 | inactive |
| c1cc2c(cc1OCCNC1CCCC1)CCC2 | inactive |
| Cc1cc(C)nc(SCC(=O)c2c(N)n(C)c(=O)n(C)c2=O)n1 | inactive |
| O=c1c2c([nH]c3ccccc13)CCC2 | inactive |
| Cc1c(OC(C)C(=O)NCc2ccccn2)ccc2c3c(c(=O)oc12)CCCC3 (centres undefined) | inconclusive: 18.3 µM [inhibitor, single point] |
| CC(=O)Cn1nnc2sc(-c3ccccc3)cc2c1=O | inconclusive: 16.4 µM [activator, partial curve] |
| CCOC(=O)C1=C(C)N(C)C(=O)NC1c1c(O)ccc2ccccc12 (centres undefined) | inactive |
| COC(=O)N1N=C(c2ccccc2)CC1(O)C(F)(F)F (centres undefined) | inconclusive: 20.6 µM [activator, partial curve] |
| O=C(O)c1ccc(N=NN2CCCCCC2)cc1 | inconclusive: 1.84 µM [activator, partial curve] |
| O=C(Nc1c(Cl)cccc1Cl)c1ccc(-c2ccccc2)cc1 | inactive |

| Structure (SMILES) | Potency |
| --- | --- |
| CSc1ccccc1C(=O)C1CCCN(C(=O)c2ccc(N3CCOCC3)cc2)C1 (centres undefined) | inconclusive: 16.4 µM [inhibitor, single point] |
| CCN1/C(=C2\OC(=S)N(C)C2=O)Sc2ccccc21 | inconclusive: 13 µM [activator, partial curve] |
| O=C(CSc1ccccc1F)NCCN1C(=O)CSC1=O | inconclusive: 32.6 µM [activator, partial curve, poor fit] |
| O=[N+]([O-])c1ccccc1/C=N/Nc1nccnc1Cl | inconclusive: 35.5 µM [activator, single point] |
| COCC(=O)N1CCC(Oc2ccc(C(=O)NCc3cc(C)no3)cc2)CC1 | inactive |
| CCOC(=O)c1ccccc1NC(=O)c1cn(-c2ccc(C)c(C)c2)c(=O)c2ccccc12 | inconclusive: 18.4 µM [inhibitor, partial curve] |
| Cc1ccc(NC(=O)n2ncc3c(C)cccc32)cc1F | inconclusive: 8.2 µM [activator, partial curve] |
| COc1ccc(CN2C(=O)c3cccnc3C2=O)cc1S(=O)(=O)N1CCCCC1C (centres undefined) | inconclusive: 18.3 µM [activator, partial curve, poor fit] |
| COc1ccc(NC(=O)CCn2c(=O)c3cccn3c3ccccc32)cc1 | inconclusive: 23.1 µM [inhibitor, partial curve, poor fit] |
| CCCCCCCC(=O)Nc1cc(C(=O)NCCC)ccc1N1CCC2(CC1)CC(c1ccccc1)=NO2 | inconclusive: 29.1 µM [inhibitor, single point] |
| COCCC1CCCCN1C(=O)c1ccc2nc(Cc3ccccc3F)oc2c1 (centres undefined) | inconclusive: 3.26 µM [activator, full curve] |
| O=C(Nc1ccc2nc3n(c(=O)c2c1)CCCC3)c1ccccc1F | inconclusive: 9.2 µM [activator, partial curve] |
| COc1cc(SC)ccc1C(=O)Nc1ccc(Br)cn1 | inconclusive: 0.231 µM [activator, full curve] |
| COc1cccc(CNCCO)c1OCc1ccc(Cl)cc1 | inactive |
| COC(=O)c1ccccc1NC(=O)CN1CCC(C)CC1 | inactive |
| CCc1ccc(CN2CCN(C(=O)c3cccc(OC)c3OC)CC2)cc1 | inconclusive: 1.84 µM [inhibitor, full curve] |
| CCS(=O)(=O)C1=NN2C(=N)/C(=C\c3ccc(OC(=O)c4ccco4)c(OC)c3)C(=O)N=C2S1 | inactive |
| O=C(Nc1cccc(-c2cn3ccccc3n2)c1)c1cnccn1 | inconclusive: 32.6 µM [inhibitor, single point] |
| Cc1c(C(=O)Nc2nc3ccccc3[nH]2)cccc1[N+](=O)[O-] | inconclusive: 6.51 µM [activator, full curve] |
| COc1cccc(-n2c(CN3CCN(c4cccc(C)c4)C(C)C3)nc3ccc([N+](=O)[O-])cc3c2=O)c1 (centres undefined) | active: 11.6 µM |
| O=C1NC(=S)N/C1=C/c1cccc([N+](=O)[O-])c1 | inconclusive: 25.9 µM [activator, partial curve, poor fit] |
| O=C(Cc1nc(-c2ccc([N+](=O)[O-])cc2)cs1)Nc1ccccc1 | inconclusive: 16.4 µM [inhibitor, single point] |
| Cc1ccc(C(=O)Nc2ccc(F)cc2F)o1 | inconclusive: 14.6 µM [activator, single point] |

An excerpt of these results, as tab-separated lines:
Structure (SMILES)	Potency
COc1cc(SC)ccc1C(=O)Nc1ccc(Br)cn1	inconclusive: 0.231 µM [activator, full curve]
COc1cccc(CNCCO)c1OCc1ccc(Cl)cc1	inactive
COC(=O)c1ccccc1NC(=O)CN1CCC(C)CC1	inactive
CCc1ccc(CN2CCN(C(=O)c3cccc(OC)c3OC)CC2)cc1	inconclusive: 1.84 µM [inhibitor, full curve]
